The source of these data is PubChem BioAssay AID2685 (National Center for Advancing Translational Sciences (NCATS), 2010).

Usually AC50 stands for the concentration at which the activity in the assay is half-maximal. Low readings indicate activity at low concentration, high ones activity only at high concentration.

The list shows a part of the results. The main result of the screen is listed elsewhere. These columns were measured beside it and carry no call. The list favours compounds with an active or inconclusive main result. The note in brackets gives the kind of curve behind each potency; many fits are weak.

A short description of this assay: qHTS Assay for Lipid Storage Modulators in Drosophila S3 Cells.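 As to cell number change: cells counted by Cell Tracker Red CMTPX staining in the red channel.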 Particulars: BODIPY lipid droplet fluorescence, 18-24 h; for cell number change: measured here: cell count max response, cells fed with added oleic acid. The procedure, abridged:
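Drosophila S3 cells loaded with oleic acid (400 uM, as added) and compounds at several concentrations; lipid droplets imaged by 488-nm laser-scanning cytometry, 500–530 nm intensity and object ratio to cell channel. Percent activity normalized to 20 uM Triacsin C.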

Where [1] appears, read: measured here: lipid fluorescence (Fed channel) AC50, cells fed with added oleic acid.
[2] abbreviates: measured here: cell number channel AC50, cells fed with added oleic acid.

Turning to `O=C(COC(=O)c1ccc(NS(=O)(=O)c2ccc3c(c2)OCCO3)cc1)NC1CC1`, the cell number change was determined as 8.34%. Moreover, under setting [1], the AC50 was 25.9 µM [falling, single point].

`CC(/C=N/NC(=O)c1ccc(Br)cc1)=C\c1ccccc1`: the cell number change was -31.1%. Also, the AC50 under setting [2] was 18.4 µM [falling, single point]. The AC50 under setting [1] is 23.1 µM [falling, single point].

As for `O=C(CCCN1C(=O)c2ccccc2C1=O)NCCc1ccc(OC(F)F)cc1`, the cell number change is -7.66%. Besides, the AC50 under setting [1] was 0.58 µM [rising, single point].

Regarding `Cc1cc(C)cc(NC(=S)NCc2cccs2)c1`, the cell number change is -22.9%. Further, the AC50 under setting [1] was 29.1 µM [falling, single point].

Consider `O=C(Cc1ccc(F)cc1)N1CCOCC1`, for which the cell number change came out at 12.5%. The AC50 under setting [1] was 29.1 µM [rising, single point].

As to `Cc1nc(SCC(=O)CC(=O)OC(C)C)c(C#N)c(C)c1C`, the cell number change stood at 117%. Moreover, the AC50 under setting [2] is 18.4 µM [rising, single point].

Regarding `O=C(NNC1=NS(=O)(=O)c2ccccc21)c1ccc(Cl)cc1`, the cell number change amounted to 2.28%.

As for `Oc1ccc(/C=N/N2CCN(C3c4ccccc4-c4ccccc43)CC2)c(O)c1`, the cell number change came out at 20.7%. Under setting [1], the AC50 was 29.1 µM [falling, partial curve].

On to `COc1cccc2c(=O)cc(C)n(CC(=O)Nc3ccc(Br)cc3)c12`, for which the cell number change stood at 13.7%. Further, the AC50 under setting [1] was 0.651 µM [rising, full curve, poor fit].

Regarding `C=CCSc1nc2c(c(=O)[nH]1)C(C(C)C)C(C#N)=C(N)O2` (stereo not drawn), the cell number change is -11.2%. For the same molecule, under setting [2], the AC50 was 0.82 µM [falling, full curve]. Moreover, the AC50 under setting [1] is 0.82 µM [falling, full curve].

`O=C(Cc1cccc(F)c1)Nc1ccc2c(c1)CCC2`: the cell number change turned out to be 2.7%.

For `COc1cc(C)c(CN2CCCCC2CO)cc1C` (stereo not drawn), the cell number change was determined as 0.527%. Also, the AC50 under setting [1] was 0.13 µM [rising, full curve, poor fit].

As for `CCn1nc(C(=O)OCc2c(C)noc2C)c2ccccc2c1=O`, the cell number change amounted to 44%. Also, the AC50 under setting [2] is 0.461 µM [rising, full curve]. Further, under setting [1], the AC50 is 5.17 µM [rising, partial curve].

Regarding `O=C1CCCN1CC(O)CS(=O)(=O)Cc1ccccc1Cl` (stereo not drawn), the cell number change worked out at 9.33%. Besides, the AC50 under setting [1] is 6.51 µM [falling, single point].

In the case of `CCN(CC(=O)Nc1ccccc1-c1ccccc1)Cc1nc2ccccc2c(=O)[nH]1`, the cell number change turned out to be 5.89%. For the same molecule, the AC50 under setting [1] is 1.03 µM [rising, single point].

On to `Cc1ccc(NC(=O)COc2cccc(Oc3ccccc3)c2)cc1S(=O)(=O)N1CCOCC1`, for which the cell number change is -21.7%. Besides, the AC50 under setting [2] is 0.00461 µM [falling, full curve, poor fit].

With `CCOc1ncccc1C(=O)NCc1ccc(C)cc1`, the cell number change was -6.09%. Moreover, the AC50 under setting [1] is 0.092 µM [rising, full curve, poor fit].

On to `CC(=O)N1CCCc2cc(S(=O)(=O)N3CCC(C)CC3)ccc21`, for which the cell number change was -13.9%. Besides, the AC50 under setting [1] was 3.26 µM [falling, single point].

Consider `O=C(CCS(=O)(=O)c1ccc(Br)cc1)NCc1cccs1`, for which the cell number change was -6.49%. Under setting [1], the AC50 was 16.4 µM [falling, single point].

As for `CCOC(=O)c1c(NC(=O)CSc2ncccn2)sc2c1CCN(Cc1ccccc1)C2`, the cell number change was -50.6%. Moreover, under setting [2], the AC50 is 16.4 µM [falling, partial curve]. Under setting [1], the AC50 was 1.16 µM [rising, partial curve].

`CCOc1ccc(-c2cc(C(=O)NN=C3CCN(C)CC3)[nH]n2)cc1`: the cell number change was -23.1%.

Turning to `O=C(N/N=C/c1cccs1)c1cnccn1`, under setting [1], the AC50 was 3.26 µM [falling, single point].

For the molecule `O=C(COc1cc(Cl)c(Cl)cc1Cl)N1CCN(c2ccccn2)CC1`, the cell number change was determined as 9.94%. For the same molecule, the AC50 under setting [1] was 18.4 µM [rising, single point].

`COc1cc(-c2cccs2)cc(=O)c2c(C)oc(C)c12`: the cell number change is -33.3%. For the same molecule, the AC50 under setting [2] is 8.2 µM [falling, partial curve]. Besides, the AC50 under setting [1] was 18.4 µM [falling, partial curve, poor fit].

`CCOC(=O)c1c(C)[nH]c(C)c1C(=O)CSc1nnc(-c2ccc(OC(F)F)cc2)o1`: the AC50 is 0.291 µM [rising, partial curve, poor fit] under setting [2] and 0.259 µM [rising, partial curve, poor fit] under setting [1].

As to `Cc1ccc2[nH]c(CCN(C)C)c(CC#N)c2c1`, the AC50 under setting [2] is 3.66 µM [falling, single point].

Regarding `Cc1ccc(C(=O)COC(=O)c2cc(Cl)nc3ccccc23)cc1`, under setting [2], the AC50 was 0.326 µM [falling, partial curve, poor fit].

For `Cn1c(N)c(C(=O)COC(=O)c2cc(C(F)(F)F)nc3ccccc23)c(=O)n(C)c1=O`, the cell number change came out at 12.1%. Moreover, the AC50 under setting [1] was 5.8 µM [rising, partial curve, poor fit].

With `CCC(C)NC(=O)C1CCC(CNS(=O)(=O)c2ccccc2)CC1` (stereo not drawn), the cell number change was -20.4%. Also, under setting [2], the AC50 was 0.82 µM [falling, full curve, poor fit]. Under setting [1], the AC50 was 23.1 µM [falling, single point].

For `CC12CCC(=O)N1C(C(=O)Nc1ccc(Cl)c(Cl)c1)CS2` (stereo not drawn), the cell number change was 24.9%.

Take `CCN(CC)c1ccc2cc(-c3nc(-c4ccc(OC)cc4)cs3)c(=O)oc2c1`: the cell number change was -102%. The AC50 under setting [2] is 4.61 µM [falling, full curve]. Under setting [1], the AC50 is 2.06 µM [falling, full curve].

In the case of `CC1(C)Cc2c(sc3c2c(=O)n(-c2cccc(Cl)c2)c(=O)n3CC(N)=O)CO1`, the cell number change was -12.4%. The AC50 under setting [1] is 29.1 µM [rising, single point].

As to `COc1ccccc1NC(=O)CSc1ccc2nnc(CCNC(=O)c3ccccc3)n2n1`, the cell number change is -15.3%. Further, the AC50 under setting [1] was 32.6 µM [falling, partial curve, poor fit].

For the molecule `COc1ccc(N/N=C(\C=N\O)C(=O)c2ccc(OC)cc2)cc1`, the AC50 is, setting by setting: under setting [2], 6.51 µM [rising, single point]; under setting [1], 0.13 µM [falling, full curve, poor fit].

For the molecule `Cc1cc(C(=O)COC(=O)c2cc(Cl)c(O)c(Cl)c2)c(C)n1C`, the cell number change was found to be 21.8%. Further, the AC50 under setting [1] is 1.84 µM [rising, partial curve, poor fit].

As for `CC(=O)Nc1ccc(NC(=O)C(C)OC(=O)CNC(=O)c2sc3ccccc3c2Cl)cc1` (stereo not drawn), the cell number change was -32%. Moreover, under setting [2], the AC50 is 29.1 µM [falling, single point]. In addition, the AC50 under setting [1] is 23.1 µM [falling, partial curve, poor fit].
